Experimental data from paper PMC9581539.
No constants are given. Whether binding was seen depends on the method and setting. Binding seen in cells or lysates may run through a third protein. Some results given as binding are weak or reduced against the parent protein; the word gives no strength.

Sequences of proteins named here, by UniProt entry; tags and fusion partners are left off. Residues count along the entry.
UniProt P50552, residues 1-113: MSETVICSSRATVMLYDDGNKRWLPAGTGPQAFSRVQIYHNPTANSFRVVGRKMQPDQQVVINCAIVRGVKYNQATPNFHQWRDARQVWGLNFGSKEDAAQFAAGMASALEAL
UniProt Q8CBW3: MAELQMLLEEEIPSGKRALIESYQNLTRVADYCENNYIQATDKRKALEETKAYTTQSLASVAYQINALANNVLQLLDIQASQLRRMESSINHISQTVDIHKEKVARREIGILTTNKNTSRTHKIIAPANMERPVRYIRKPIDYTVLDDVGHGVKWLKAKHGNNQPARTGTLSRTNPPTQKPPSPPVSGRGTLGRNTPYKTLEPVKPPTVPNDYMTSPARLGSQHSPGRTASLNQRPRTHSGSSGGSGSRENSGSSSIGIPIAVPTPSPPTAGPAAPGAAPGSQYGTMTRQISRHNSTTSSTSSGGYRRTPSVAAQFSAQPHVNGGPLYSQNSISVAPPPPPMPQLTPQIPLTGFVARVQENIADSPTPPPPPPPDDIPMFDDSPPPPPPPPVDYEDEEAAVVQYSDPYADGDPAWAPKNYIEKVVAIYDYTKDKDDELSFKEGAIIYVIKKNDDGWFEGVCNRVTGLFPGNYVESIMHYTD
UniProt O08808: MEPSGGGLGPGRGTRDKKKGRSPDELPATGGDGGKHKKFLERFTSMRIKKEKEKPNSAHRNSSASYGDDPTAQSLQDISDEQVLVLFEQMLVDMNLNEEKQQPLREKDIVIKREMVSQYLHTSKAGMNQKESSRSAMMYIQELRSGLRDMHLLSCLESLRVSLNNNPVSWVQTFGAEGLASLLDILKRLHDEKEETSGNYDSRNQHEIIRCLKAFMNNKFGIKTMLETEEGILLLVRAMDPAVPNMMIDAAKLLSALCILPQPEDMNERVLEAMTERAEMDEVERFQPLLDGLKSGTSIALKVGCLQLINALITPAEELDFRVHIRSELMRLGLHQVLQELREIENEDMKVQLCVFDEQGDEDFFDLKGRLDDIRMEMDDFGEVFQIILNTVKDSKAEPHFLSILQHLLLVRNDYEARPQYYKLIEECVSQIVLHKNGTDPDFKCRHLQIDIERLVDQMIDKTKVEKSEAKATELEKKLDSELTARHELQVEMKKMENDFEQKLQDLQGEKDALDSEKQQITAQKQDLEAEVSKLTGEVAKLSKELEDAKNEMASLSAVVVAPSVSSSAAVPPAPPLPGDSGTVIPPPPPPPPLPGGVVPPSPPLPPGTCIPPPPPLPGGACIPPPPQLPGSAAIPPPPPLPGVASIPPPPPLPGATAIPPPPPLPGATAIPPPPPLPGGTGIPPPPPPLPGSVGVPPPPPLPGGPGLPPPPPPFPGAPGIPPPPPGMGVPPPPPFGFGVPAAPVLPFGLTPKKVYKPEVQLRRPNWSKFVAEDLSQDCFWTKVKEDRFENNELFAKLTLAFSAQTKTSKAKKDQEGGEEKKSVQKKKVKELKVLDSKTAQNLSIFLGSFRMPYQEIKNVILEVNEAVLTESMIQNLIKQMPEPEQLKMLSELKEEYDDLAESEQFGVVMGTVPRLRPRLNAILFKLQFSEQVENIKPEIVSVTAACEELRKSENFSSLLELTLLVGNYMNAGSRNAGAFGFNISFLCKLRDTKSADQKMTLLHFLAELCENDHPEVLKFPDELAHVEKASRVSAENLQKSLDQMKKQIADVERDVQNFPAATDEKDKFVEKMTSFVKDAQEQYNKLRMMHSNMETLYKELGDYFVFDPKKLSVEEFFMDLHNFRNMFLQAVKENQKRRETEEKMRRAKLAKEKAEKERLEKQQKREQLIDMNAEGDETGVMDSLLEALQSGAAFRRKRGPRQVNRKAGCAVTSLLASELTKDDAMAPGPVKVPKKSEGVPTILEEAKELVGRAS
UniProt Q8BH43: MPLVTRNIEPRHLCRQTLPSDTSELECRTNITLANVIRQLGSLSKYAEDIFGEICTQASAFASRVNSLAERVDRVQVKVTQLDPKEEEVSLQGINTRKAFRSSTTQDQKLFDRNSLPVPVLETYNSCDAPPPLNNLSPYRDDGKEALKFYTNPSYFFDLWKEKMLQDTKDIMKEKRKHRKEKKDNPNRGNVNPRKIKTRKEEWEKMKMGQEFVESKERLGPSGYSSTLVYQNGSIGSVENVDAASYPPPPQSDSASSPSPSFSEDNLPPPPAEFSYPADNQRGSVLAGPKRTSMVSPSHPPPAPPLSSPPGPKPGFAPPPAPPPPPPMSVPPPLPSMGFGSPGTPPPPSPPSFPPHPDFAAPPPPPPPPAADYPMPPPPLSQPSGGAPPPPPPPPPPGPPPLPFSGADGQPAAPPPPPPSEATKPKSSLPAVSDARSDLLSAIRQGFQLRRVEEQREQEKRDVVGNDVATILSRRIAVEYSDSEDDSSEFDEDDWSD

Each substance was assayed against GST-tagged VASP-EVH1 domain (UniProt P50552) (assay: pull-down; GST-VASP-EVH1 (GST as control) on GST-bind resin beads incubated with lysates of immature or mature DCs in RIPA buffer, with or without the EVH1-specific inhibitor ProM; eluates by SDS-PAGE and immunoblotting; only the target purified).

binding, binds:
Abi1 (from UniProt Q8CBW3 1-481), mDia1/Diaph1 (from UniProt O08808 1-1255), Wave2/Scar2/Wasf2 (from UniProt Q8BH43 1-497)
